Measured values as given in patent US20150331992A1, “CANCER PROGNOSIS AND THERAPY BASED ON SYNTHEIC LETHALITY” (Ramot at Tel-Aviv University Ltd., priority 2014, published 2015).

System: VHL-deficient and VHL-restored renal carcinoma cells (RCC4)
Experiment: Growth inhibition of VHL-deficient vs VHL-restored renal cells by drugs at mid-effective concentration
Type: cell-based
Conditions: mid-effective concentration of each drug; both cell lines in triplicates; FIG. 5
Method: A range of concentrations for each drug were tested to identify a suitable working concentration in which there was an effect on cells growth, but not complete death (which is more likely to be due to non-specific toxicity).

## CN[C@@H]1C[C@H]2O[C@@](C)([C@@H]1OC)n1c3ccccc3c3c4c(c5c6ccccc6n2c5c31)C(=O)NC4 [Staurosporine]
  Sensitivity (percentage of growth inhibition) of VHL-deficient cells compared to isogenic cells in which pVHL was restored: specificity was however not observed
